Laboratory results taken from PubChem BioAssay AID330 (DTP/NCI, 2004).
The list shows only some results of the screen, not a fair sample: it is rich in T/C values a quarter to a half above the control, in often repeated tests (any T/C) and in doses without a T/C. Other doses and runs of a compound stand elsewhere. T/C gives the treated animals as a percentage of the vehicle group. Some doses have a count of surviving animals in place of a T/C: the source holds a T/C of zero for them, seemingly a mark for toxic or unscored doses. Some doses without a T/C left all or most animals alive at the check, yet need not have been tolerated: survival well below the control is almost never listed, so the zero probably covers shortened survival too. Counts of survivors are from the toxicity check (mostly the fifth day) where no day follows; animals may have died later. Schedules are NCI's codes, read here as Q, the interval in days (D) or hours (H), X, the number of doses. Additions like (4×) stand for listed records that agree. Some doses were run more than once; the values are given in rising order. For survival time, the PubChem record calls one and a half times the control and up active, and a quarter to a half above the control has no call in these data; cut-offs in other NCI protocols can differ. Some T/C values are followed by the survivors on the day toxicity was checked, most often the fifth; where none is given, no animal had died by that day.

Test system: P388 leukemia ip, CD2F1 mice, survival T/C
Assay: NCI In Vivo Anticancer Drug Screen. Data for tumor model P388 Leukemia (intraperitoneal) in CD2F1 (CDF1) mice
Conditions: T/C endpoint: median survival time, higher T/C = longer survival
[1] = dose: 25.0 mg/kg/injection, schedule: Q01DX005 (ip), vehicle: saline with Tween-80
[2] = dose: 50.0 mg/kg/injection, schedule: Q01DX005 (ip), vehicle: saline with Tween-80
[3] = dose: 100.0 mg/kg/injection, schedule: Q01DX005 (ip), vehicle: saline with Tween-80
[4] = dose: 200.0 mg/kg/injection, schedule: Q01DX005 (ip), vehicle: saline with Tween-80
[5] = dose: 25.0 mg/kg/injection, schedule: Q01DX009 (ip), vehicle: Klucel (hydroxypropylcellulose) (HPC)
[6] = dose: 50.0 mg/kg/injection, schedule: Q04DX002 (ip), vehicle: saline with Tween-80
[7] = dose: 200.0 mg/kg/injection, schedule: Q01DX009 (ip), vehicle: saline
[8] = dose: 200.0 mg/kg/injection, schedule: Q01DX009 (ip), vehicle: saline with Tween-80
[9] = dose: 400.0 mg/kg/injection, schedule: Q01DX009 (ip), vehicle: saline with Tween-80
[10] = dose: 100.0 mg/kg/injection, schedule: Q04DX002 (ip), vehicle: saline with Tween-80
[11] = dose: 200.0 mg/kg/injection, schedule: Q01DX005 (ip), vehicle: Klucel (hydroxypropylcellulose) (HPC)
[12] = dose: 400.0 mg/kg/injection, schedule: Q04DX003 (ip), vehicle: saline with Tween-80
[13] = dose: 200.0 mg/kg/injection, schedule: Q04DX002 (ip), vehicle: saline with Tween-80

O=C1C(Cl)=C(N=Nc2c(Cl)c(O)c3ccccc3c2O)C(=O)c2ccccc21
T/C (dose: 12.5 mg/kg/injection, schedule: Q01DX010 (ip), vehicle: saline): 136 % of control

COc1cccc2c1C(=O)c1c(O)c3c(c(O)c1C2=O)C[C@@](O)(C(C)=O)C[C@@H]3OC1CC(N(Cc2ccccc2)Cc2ccccc2)C(O)C(C)O1 (stereo partly specified)
T/C (dose: 3.13 mg/kg/injection, schedule: Q01DX009 (ip), vehicle: water): 140 % of control | T/C (dose: 6.25 mg/kg/injection, schedule: Q01DX009 (ip), vehicle: water): 140 % of control | T/C (dose: 7.78 mg/kg/injection, schedule: Q04DX003 (ip), vehicle: water): 140 % of control | T/C (dose: 36.0 mg/kg/injection, schedule: Q04DX003 (ip), vehicle: water): 140 % of control | survivor count (dose: 100.0 mg/kg/injection, schedule: Q01DX009 (ip), vehicle: water): 3 of 3 | survivor count (dose: 200.0 mg/kg/injection, schedule: Q01DX009 (ip), vehicle: water): 3 of 3

C/C(=N\NC(=S)N1CCN(c2ccccn2)CC1)c1ncccn1
T/C (dose: 12.5 mg/kg/injection, schedule: Q01DX005 (ip), vehicle: saline with Tween-80): 130 % of control | survivor count [1]: 5 of 6 and 6 of 6 | survivor count [2]: 2 of 6 | survivor count [3]: 0 of 6 | survivor count [4]: 0 of 6

CCN1/C(=C/C=C2\CCC(/C=C/c3sc4ccc(Cl)cc4[n+]3CC)=C2N(c2ccccc2)c2ccccc2)Sc2ccc(Cl)cc21
T/C (dose: 12.5 mg/kg/injection, schedule: Q01DX009 (ip), vehicle: Klucel (hydroxypropylcellulose) (HPC)): 128 and 137 % of control | T/C [5]: 128 % of control | survivor count [5]: 6 of 6 | survivor count (dose: 50.0 mg/kg/injection, schedule: Q01DX009 (ip), vehicle: Klucel (hydroxypropylcellulose) (HPC)): 2 of 6

CC(=O)Oc1ccc(OC(C)=O)c2c(OC(C)=O)c(C3CCC(C)(C)O3)cc(OC(C)=O)c12 (stereo unspecified)
survivor count [6]: 1 of 6

COC(=O)c1ccc(-c2ccccc2)cc1
survivor count (dose: 400.0 mg/kg/injection, schedule: Q01DX009 (ip), vehicle: Klucel (hydroxypropylcellulose) (HPC)): 6 of 6

N#Cc1sc(=S)n(-c2ccccc2)c1N
survivor count (dose: 100.0 mg/kg/injection, schedule: Q01DX009 (ip), vehicle: saline): 6 of 6 | survivor count [7]: 4 of 6

Nc1nc2c(c(=O)[nH]1)NC(CCNc1ccc(C(=O)NC(CCC(=O)O)C(=O)O)cc1)CN2 (stereo unspecified)
T/C (dose: 100.0 mg/kg/injection, schedule: Q01DX009 (ip), vehicle: saline with Tween-80): 127 % of control | survivor count (dose: 200.0 mg/kg/injection, schedule: Q01DX009 (ip), vehicle: saline sonified): 5 of 6 | T/C [8]: 131 % of control [5 of 6 alive] | survivor count [8]: 4 of 6 | survivor count (dose: 400.0 mg/kg/injection, schedule: Q01DX009 (ip), vehicle: saline sonified): 2 of 6 | survivor count [9]: 0 of 6

COc1cc2ccc3c(c2cc1OC)CNCC3
survivor count [7]: 3 of 6

CC(C)(C)SC(=O)CC1(O)CCCCC1
survivor count (dose: 100.0 mg/kg/injection, schedule: Q04DX002 (ip), vehicle: Klucel (hydroxypropylcellulose) (HPC)): 0 of 6 | survivor count (dose: 200.0 mg/kg/injection, schedule: Q04DX002 (ip), vehicle: Klucel (hydroxypropylcellulose) (HPC)): 4 of 6 | survivor count (dose: 400.0 mg/kg/injection, schedule: Q04DX002 (ip), vehicle: Klucel (hydroxypropylcellulose) (HPC)): 0 of 6

O=C1C=CC(=O)C(CC2CCCC2C2=CC(=O)C=CC2=O)=C1 (stereo unspecified)
survivor count [6]: 6 of 6 | survivor count [10]: 3 of 6

CN(Cc1ccc(Nc2ccccc2)cc1)C1CCCCC1
survivor count (dose: 400.0 mg/kg/injection, schedule: Q01DX009 (ip), vehicle: saline + Tween-80 + alcohol): 5 of 6

CCN(CC)CCOCCC1(C)Oc2ccc(Cl)cc2O1 (stereo unspecified)
survivor count [7]: 1 of 6

Cc1ccc(S(=O)(=O)NN=c2c3ccccc3c3nc4ccccc4nc3c3ccccc23)cc1
survivor count [11]: 6 of 6

COc1ccc(CC(NC(=O)NSc2ccccc2)C(=O)NC2C(CO)OC(n3cnc4c(N(C)C)ncnc43)C2O)cc1 (stereo unspecified)
survivor count [3]: 6 of 6 | survivor count [4]: 6 of 6

CNC1C(=O)C(C)C(O)(C(CC(C)C(O)/C=C/C=C/CNC(=O)C(C)(C)C(O)\C(C)=C/C=C\C=C\Cc2cnc(C)o2)OC)C12C(=O)OC2COC (stereo unspecified) (tested in a mixture with another compound)
survivor count (dose: 4.0 mg/kg/injection, schedule: Q01DX005 (ip), vehicle: DMSO): 4 of 6 | survivor count (dose: 8.0 mg/kg/injection, schedule: Q01DX005 (ip), vehicle: DMSO): 1 of 6 | survivor count (dose: 16.0 mg/kg/injection, schedule: Q01DX005 (ip), vehicle: DMSO): 0 of 6

c1cc(OCC2CO2)ccc1OCC1CO1 (stereo unspecified)
survivor count [8]: 4 of 6 | survivor count [9]: 1 of 6 | T/C (dose: 400.0 mg/kg/injection, schedule: Q04DX003 (ip), vehicle: saline sonified): 136 % of control | T/C [12]: 127 % of control

COc1ccc(C2CC3CCC(C2O)N3C)cc1 (stereo unspecified)
survivor count [11]: 0 of 6

c1ccc(C(=C2C(=C(c3ccccc3)c3ccccc3)c3nc4ccccc4nc32)c2ccccc2)cc1
survivor count (dose: 30.0 mg/kg/injection, schedule: Q01DX005 (ip), vehicle: saline with Tween-80): 6 of 6 (2×) | survivor count (dose: 60.0 mg/kg/injection, schedule: Q01DX005 (ip), vehicle: saline with Tween-80): 6 of 6 (2×) | survivor count (dose: 120.0 mg/kg/injection, schedule: Q01DX005 (ip), vehicle: saline with Tween-80): 6 of 6

Cc1cc2nc(C)nn2c(C)n1
survivor count (dose: 200.0 mg/kg/injection, schedule: Q04DX003 (ip), vehicle: saline): 6 of 6

O=C(O)c1ccc(N2C(=O)C3C4CCC(O4)C3C2=O)cc1 (stereo unspecified)
survivor count [1]: 3 of 6 | survivor count [2]: 3 of 6 | survivor count [3]: 0 of 6 | survivor count [4]: 0 of 6

O=C(OCc1ccccc1)N1C[C@@H](Br)[C@H](Br)[C@H]1Cc1ccccc1
survivor count (dose: 400.0 mg/kg/injection, schedule: Q01DX001 (ip), vehicle: distilled water + alcohol): 2 of 6

CC(Cl)CN(CC(C)Cl)c1ccc(-c2ccccc2)cc1 (stereo unspecified)
survivor count (dose: 100.0 mg/kg/injection, schedule: Q01DX009 (ip), vehicle: Klucel (hydroxypropylcellulose) (HPC)): 6 of 6 | T/C (dose: 200.0 mg/kg/injection, schedule: Q01DX009 (ip), vehicle: Klucel (hydroxypropylcellulose) (HPC)): 139 [5 of 6 alive] and 147 % of control

C[As](C)SCCO
survivor count [10]: 5 of 5 | survivor count [13]: 0 of 5

CN=C(N)N/N=C/c1ccc(-c2ccccc2)cc1
survivor count (dose: 100.0 mg/kg/injection, schedule: Q04DX002 (ip), vehicle: saline): 1 of 6

CCCCN=C(N)N/N=C/c1c2ccccc2c(C)c2ccccc12
survivor count [10]: 1 of 6 | survivor count [13]: 0 of 6

COC1=CC(=N/Cl)/C=CC/1=N/Cl
survivor count (dose: 50.0 mg/kg/injection, schedule: Q01DX005 (ip), vehicle: saline): 0 of 5 | survivor count (dose: 100.0 mg/kg/injection, schedule: Q01DX005 (ip), vehicle: saline): 0 of 5 | survivor count (dose: 200.0 mg/kg/injection, schedule: Q01DX005 (ip), vehicle: saline): 0 of 5

OC(CC1(O)C(F)(F)C(F)(F)C1(F)F)c1ccccc1 (stereo unspecified)
survivor count [12]: 4 of 6

CCC1(O)CC(c2ccccc2)N(C)C(c2ccccc2)C1 (stereo unspecified)
survivor count [4]: 0 of 6
